These are yes or no findings as the source states them, for the method shown. Binding seen in cells or lysates may run through a third protein. Some results given as binding are weak or reduced against the parent protein; the word gives no strength. Sequences can lack the tags named with a protein.

Here are results for 4 molecules from PMC7381030.

In experiment [1] the target is T1, ZNF598-TEV-3xFLAG (human) (UniProt Q86UK7).
T1 sequence: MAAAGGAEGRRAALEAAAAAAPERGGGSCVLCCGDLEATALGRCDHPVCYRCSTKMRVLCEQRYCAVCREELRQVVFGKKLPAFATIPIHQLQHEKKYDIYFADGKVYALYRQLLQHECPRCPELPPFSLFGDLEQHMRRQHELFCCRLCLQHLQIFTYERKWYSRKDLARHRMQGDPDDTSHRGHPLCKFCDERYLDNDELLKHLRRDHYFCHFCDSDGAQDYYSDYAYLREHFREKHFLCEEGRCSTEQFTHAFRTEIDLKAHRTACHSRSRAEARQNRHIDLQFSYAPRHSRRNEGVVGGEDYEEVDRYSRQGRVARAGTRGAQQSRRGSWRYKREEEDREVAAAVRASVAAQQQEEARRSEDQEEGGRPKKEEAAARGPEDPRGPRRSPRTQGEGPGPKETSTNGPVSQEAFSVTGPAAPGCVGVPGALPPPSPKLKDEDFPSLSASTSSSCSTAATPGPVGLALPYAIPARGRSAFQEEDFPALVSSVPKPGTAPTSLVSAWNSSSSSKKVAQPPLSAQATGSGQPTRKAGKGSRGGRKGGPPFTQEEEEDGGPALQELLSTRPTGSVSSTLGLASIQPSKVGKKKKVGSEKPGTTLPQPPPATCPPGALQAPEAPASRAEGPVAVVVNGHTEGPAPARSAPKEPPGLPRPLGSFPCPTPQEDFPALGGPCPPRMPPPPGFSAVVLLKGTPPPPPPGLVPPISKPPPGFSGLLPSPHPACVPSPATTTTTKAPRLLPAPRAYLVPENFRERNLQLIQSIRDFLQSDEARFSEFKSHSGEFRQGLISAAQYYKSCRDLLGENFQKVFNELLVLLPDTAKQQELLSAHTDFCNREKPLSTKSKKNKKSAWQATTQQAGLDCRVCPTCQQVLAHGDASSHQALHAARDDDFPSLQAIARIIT
As to the kind of experiment: co-IP; FLAG-M2 resin IP of the 3xFLAG-tagged bait from ribosome-free cytosolic extracts (100,000 rpm supernatant) of transfected HEK293 cells (WT, ∆EDF1 or ∆GIGYF2; with or without 1.8 μM emetine for 30 min); 1xRNC buffer with 0.5% Triton X-100 and 1 mM DTT, 1 hr at 4°C; eluted with FLAG peptide; western blot.

The target in experiment [2] is T1, ZNF598-TEV-3xFLAG (human). In words: co-IP; anti-FLAG M2 IP of ZNF598-3xFLAG from pooled sucrose gradient fractions (ribosome-free fractions 1-4 and heavy polysome fractions 7-10) of transfected WT or ∆EDF1 cells (with or without 1.8 μM emetine); 1xRNC with 0.05% digitonin; eluted with FLAG peptide; western blot. In general terms: Immunoblotting shows a protein as a band on a membrane.

Experiment [3] deals with T2, EDF1-TEV-3xFLAG (human), O60869.
T2 chain: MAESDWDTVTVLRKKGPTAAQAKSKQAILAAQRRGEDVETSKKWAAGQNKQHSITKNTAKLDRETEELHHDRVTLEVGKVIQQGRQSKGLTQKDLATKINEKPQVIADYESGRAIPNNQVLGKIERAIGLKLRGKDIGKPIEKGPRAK
In words: co-IP; FLAG-M2 resin IP of the 3xFLAG-tagged bait from ribosome-free cytosolic extracts (100,000 rpm supernatant) of transfected HEK293 cells (WT, ∆EDF1 or ∆GIGYF2; with or without 1.8 μM emetine for 30 min); 1xRNC buffer with 0.5% Triton X-100 and 1 mM DTT, 1 hr at 4°C; eluted with FLAG peptide; western blot. To be noted: remark: other sources report otherwise.

A further experiment has as its target T3, EDF1-GFP (human), O60869.
T3 chain: T2 chain
As to the kind of experiment: co-IP; GFP-trap agarose IP of EDF1-GFP from ribosome-free cytosolic extracts of transfected WT HEK293 cells (with or without 1.8 μM emetine for 30 min); 1xRNC buffer with 0.5% Triton X-100 and 1 mM DTT, 1 hr at 4°C; eluted in SDS sample buffer; western blot. To be noted: remark: other sources report otherwise.

Experiment [4] has as its target T4, ZNF598-TEV-3xFLAG (human), Q86UK7.
T4 chain: T1 sequence
In words: co-IP; FLAG-M2 resin IP of the 3xFLAG-tagged bait from ribosome-free cytosolic extracts (100,000 rpm supernatant) of transfected HEK293 cells (WT, ∆EDF1 or ∆GIGYF2; with or without 1.8 μM emetine for 30 min); 1xRNC buffer with 0.5% Triton X-100 and 1 mM DTT, 1 hr at 4°C; eluted with FLAG peptide; western blot. The conditions noted are these: remark: other sources report otherwise.

B1: Twin-Strep-GIGYF2 (protein, UniProt Q6Y7W6 1-1299)
chain: MAAETQTLNFGPEWLRALSSGGSITSPPLSPALPKYKLADYRYGREEMLALFLKDNKIPSDLLDKEFLPILQEEPLPPLALVPFTEEEQRNFSMSVNSAAVLRLTGRGGGGTVVGAPRGRSSSRGRGRGRGECGFYQRSFDEVEGVFGRGGGREMHRSQSWEERGDRRFEKPGRKDVGRPNFEEGGPTSVGRKHEFIRSESENWRIFREEQNGEDEDGGWRLAGSRRDGERWRPHSPDGPRSAGWREHMERRRRFEFDFRDRDDERGYRRVRSGSGSIDDDRDSLPEWCLEDAEEEMGTFDSSGAFLSLKKVQKEPIPEEQEMDFRPVDEGEECSDSEGSHNEEAKEPDKTNKKEGEKTDRVGVEASEETPQTSSSSARPGTPSDHQSQEASQFERKDEPKTEQTEKAEEETRMENSLPAKVPSRGDEMVADVQQPLSQIPSDTASPLLILPPPVPNPSPTLRPVETPVVGAPGMGSVSTEPDDEEGLKHLEQQAEKMVAYLQDSALDDERLASKLQEHRAKGVSIPLMHEAMQKWYYKDPQGEIQGPFNNQEMAEWFQAGYFTMSLLVKRACDESFQPLGDIMKMWGRVPFSPGPAPPPHMGELDQERLTRQQELTALYQMQHLQYQQFLIQQQYAQVLAQQQKAALSSQQQQQLALLLQQFQTLKMRISDQNIIPSVTRSVSVPDTGSIWELQPTASQPTVWEGGSVWDLPLDTTTPGPALEQLQQLEKAKAAKLEQERREAEMRAKREEEERKRQEELRRQQEEILRRQQEEERKRREEEELARRKQEEALRRQREQEIALRRQREEEERQQQEEALRRLEERRREEEERRKQEELLRKQEEEAAKWAREEEEAQRRLEENRLRMEEEAARLRHEEEERKRKELEVQRQKELMRQRQQQQEALRRLQQQQQQQQLAQMKLPSSSTWGQQSNTTACQSQATLSLAEIQKLEEERERQLREEQRRQQRELMKALQQQQQQQQQKLSGWGNVSKPSGTTKSLLEIQQEEARQMQKQQQQQQQHQQPNRARNNTHSNLHTSIGNSVWGSINTGPPNQWASDLVSSIWSNADTKNSNMGFWDDAVKEVGPRNSTNKNKNNASLSKSVGVSNRQNKKVEEEEKLLKLFQGVNKAQDGFTQWCEQMLHALNTANNLDVPTFVSFLKEVESPYEVHDYIRAYLGDTSEAKEFAKQFLERRAKQKANQQRQQQQLPQQQQQQPPQQPPQQPQQQDSVWGMNHSTLHSVFQTNQSNNQQSNFEAVQSGKKKKKQKMVRADPSLLGFSVNASSERLNMGEIETLDDY
As for B1, the binding entry in experiment [1] and in experiment [2] was “binds” throughout.

B2: Twin-Strep-GIGYF2, Q6Y7W6 1-1299 (protein)
chain: B1 chain
B2: the binding result in experiment [3] is reported as “no binding”; with EDF1-GFP (human), O60869, “no binding”.

B3: EDF1-GFP, O60869 1-148 (protein)
chain: T2 chain
Take B3: in experiment [4], the binding entry is reported as “no binding”.

B4: ZNF598-TEV-3xFLAG, Q86UK7 1-904 (enzyme)
chain: T1 sequence
As for B4, the binding result with EDF1-GFP (human), O60869 was “no binding”.
